Assay results from publication PMC12151379.
No constants are given. Whether binding was seen depends on the method and setting. Binding seen in cells or lysates may run through a third protein. Some binding calls cover weakened binding; strength is not graded here. Sequences can lack the tags named with a protein.

The chains behind the UniProt entries cited, without tags or fusion partners. Where a name states a change or a piece, a line headed by the entry shows the natural chain unless it says otherwise. A line that says so, or that is headed by a name, gives the form on record, which may keep a tag or linker.
UniProt O75334: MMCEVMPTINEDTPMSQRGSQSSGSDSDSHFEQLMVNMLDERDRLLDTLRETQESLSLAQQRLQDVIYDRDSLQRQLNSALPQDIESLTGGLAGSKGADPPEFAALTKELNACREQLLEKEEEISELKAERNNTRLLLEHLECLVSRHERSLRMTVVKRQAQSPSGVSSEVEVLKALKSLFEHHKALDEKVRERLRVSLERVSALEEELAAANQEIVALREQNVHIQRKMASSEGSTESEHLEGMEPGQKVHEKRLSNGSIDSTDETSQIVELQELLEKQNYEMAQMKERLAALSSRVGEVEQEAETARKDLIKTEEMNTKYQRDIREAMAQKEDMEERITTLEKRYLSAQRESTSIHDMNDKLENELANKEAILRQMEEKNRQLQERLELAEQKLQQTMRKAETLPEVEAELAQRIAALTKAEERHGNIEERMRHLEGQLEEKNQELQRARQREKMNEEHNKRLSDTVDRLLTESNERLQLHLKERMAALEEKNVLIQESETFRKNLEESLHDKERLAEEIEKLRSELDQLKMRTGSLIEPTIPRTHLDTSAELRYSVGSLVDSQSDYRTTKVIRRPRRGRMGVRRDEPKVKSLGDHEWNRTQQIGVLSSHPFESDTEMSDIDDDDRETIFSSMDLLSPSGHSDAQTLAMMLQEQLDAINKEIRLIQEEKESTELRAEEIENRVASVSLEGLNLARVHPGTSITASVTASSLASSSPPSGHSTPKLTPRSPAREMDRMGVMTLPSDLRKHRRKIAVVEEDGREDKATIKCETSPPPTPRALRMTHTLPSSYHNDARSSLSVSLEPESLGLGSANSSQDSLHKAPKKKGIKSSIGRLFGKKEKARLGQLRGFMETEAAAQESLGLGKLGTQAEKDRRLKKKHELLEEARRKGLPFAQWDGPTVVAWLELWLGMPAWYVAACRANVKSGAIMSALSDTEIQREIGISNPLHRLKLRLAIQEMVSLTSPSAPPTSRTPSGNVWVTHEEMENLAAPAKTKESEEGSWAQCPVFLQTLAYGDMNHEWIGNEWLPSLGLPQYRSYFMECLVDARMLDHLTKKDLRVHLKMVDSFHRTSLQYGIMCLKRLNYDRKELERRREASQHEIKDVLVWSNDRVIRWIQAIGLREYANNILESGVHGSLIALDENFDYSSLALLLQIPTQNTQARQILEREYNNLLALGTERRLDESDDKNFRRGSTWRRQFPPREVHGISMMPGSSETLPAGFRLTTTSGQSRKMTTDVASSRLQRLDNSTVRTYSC
GFP-tagged liprin-α2 ΔCC2N (O75334, form named): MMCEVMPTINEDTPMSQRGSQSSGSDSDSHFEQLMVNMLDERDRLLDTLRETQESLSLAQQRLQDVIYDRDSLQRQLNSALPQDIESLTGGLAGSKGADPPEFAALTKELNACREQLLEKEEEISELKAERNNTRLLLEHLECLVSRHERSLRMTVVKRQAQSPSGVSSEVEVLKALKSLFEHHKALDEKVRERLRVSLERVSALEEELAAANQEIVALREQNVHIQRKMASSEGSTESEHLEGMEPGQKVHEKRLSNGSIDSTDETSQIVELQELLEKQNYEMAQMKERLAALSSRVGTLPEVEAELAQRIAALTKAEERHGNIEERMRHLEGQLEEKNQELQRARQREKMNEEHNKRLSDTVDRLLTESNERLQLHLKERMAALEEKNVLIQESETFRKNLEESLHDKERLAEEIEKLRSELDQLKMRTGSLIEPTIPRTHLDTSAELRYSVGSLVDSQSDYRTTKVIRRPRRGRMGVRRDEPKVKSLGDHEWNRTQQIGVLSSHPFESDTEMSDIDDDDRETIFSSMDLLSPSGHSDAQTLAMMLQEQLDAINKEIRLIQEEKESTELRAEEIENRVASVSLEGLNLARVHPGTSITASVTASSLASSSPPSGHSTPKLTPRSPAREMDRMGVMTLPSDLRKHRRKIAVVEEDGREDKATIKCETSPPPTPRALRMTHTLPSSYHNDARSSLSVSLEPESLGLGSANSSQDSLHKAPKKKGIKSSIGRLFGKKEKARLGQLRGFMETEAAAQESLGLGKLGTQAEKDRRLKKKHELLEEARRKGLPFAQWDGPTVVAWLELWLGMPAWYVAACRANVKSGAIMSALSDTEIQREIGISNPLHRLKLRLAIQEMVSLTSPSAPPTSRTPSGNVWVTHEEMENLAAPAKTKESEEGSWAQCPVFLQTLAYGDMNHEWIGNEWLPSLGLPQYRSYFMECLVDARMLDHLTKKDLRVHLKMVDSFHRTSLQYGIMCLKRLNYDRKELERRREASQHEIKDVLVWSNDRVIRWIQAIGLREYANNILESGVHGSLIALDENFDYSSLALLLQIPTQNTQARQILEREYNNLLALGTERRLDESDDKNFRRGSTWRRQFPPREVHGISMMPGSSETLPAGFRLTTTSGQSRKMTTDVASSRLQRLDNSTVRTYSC

Legend:
Test in all cases: co-IP; HEK293T co-transfected; lysate on anti-GFP agarose beads, 60 min, 4 °C; blots with anti-GFP and anti-FLAG
[1] = biological target: GFP-tagged liprin-α2 E344R (human) (UniProt O75334)
[2] = biological target: GFP-tagged liprin-α2 (wild type) (human) (UniProt O75334)
[3] = biological target: GFP-tagged liprin-α2 R346E (human) (UniProt O75334)
[4] = biological target: GFP-tagged liprin-α2 ΔCC2N (human) (UniProt O75334)

Measured: binding

B1: Flag-tagged ELKS1 (protein, UniProt Q811U3 1-948)
chain: MYGSARSVGKVEPSSQSPGRSPRLPRSPRLGHRRTNSTGGSSGNSVGGGSGKTLSMENIQSLNAAYATSGPMYLSDHENVGAETPKSTMTLGRSGGRLPYGVRMTAMGSSPNIASSGVASDTIAFGEHHLPPVSMASTVPHSLRQARDNTIMDLQTQLKEVLRENDLLRKDVEVKESKLSSSMNSIKTFWSPELKKERALRKDEASKITIWKEQYRVVQEENQHMQMTIQALQDELRIQRDLNQLFQQDSSSRTGEPCVAELTEENFQRLHAEHERQAKELFLLRKTLEEMELRIETQKQTLNARDESIKKLLEMLQSKGLSAKATEEDHERTRRLAEAEMHVHHLESLLEQKEKENNMLREEMHRRFENAPDSAKTKALQTVIEMKDSKISSMERGLRDLEEEIQMLKSNGALSTEEREEEMKQMEVYRSHSKFMKNKIGQVKQELSRKDTELLALQTKLETLTNQFSDSKQHIEVLKESLTAKEQRAAILQTEVDALRLRLEEKETMLNKKTKQIQDMAEEKGTQAGEIHDLKDMLDVKERKVNVLQKKIENLQEQLRDKEKQMSSLKERVKSLQADTTNTDTALTTLEEALADKERTIERLKEQRDRDEREKQEEIDTYKKDLKDLKEKVSLLQGDLSEKEASLLDLKEHASSLASSGLKKDSRLKTLEIALEQKKEECLKMESQLKKAHEATLEARASPEMSDRIQQLEREIARYKDESSKAQTEVDRLLEILKEVENEKNDKDKKIAELESLTSRQVKDQNKKVANLKHKEQVEKKKSAQMLEEARRREDSLSDSSQQLQVEELLMAMEKVKQELESMKAKLSSTQQSLAEKETHLTNLRAERRKHLEEVLEMKQEALLAAISEKDANIALLELSSSKKKTQEEVAALKREKDRLVQQLKQQTQNRMKLMADNYEDDHFRSSRSNQTNHKPSPDQDEEEGIWA
binds: [1] | [2] | [3] | [4]
